Measured values as given in the supplement of paper PMC7661543.
± gives the standard deviation of the averaged measurements. The effect of the compound repeats well; differences between the knockouts mostly do not.

Test system: ZR-75-1
Assay: relative cell number vs DMSO control (72 h) (% of DMSO); higher = less growth inhibition (more cells)
Protocol: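 QMAP-Seq: a pool of 5 breast cancer cell lines (ZR-75-1, SKBR3, HCC-38, MDA-MB-231, BT-20), each carrying 12 doxycycline-inducible Cas9 sgRNA perturbations (11 knockouts plus non-targeting sgNT), was treated with compounds for 72 h at four 10-fold doses (10 nM-10 uM or 1 nM-1 uM range). Barcodes were amplified and sequenced, and cell number was interpolated from 293T spike-in standard curves. The result is expressed as % of the median of DMSO wells. Two biological replicates.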

CN1CCN(c2ccc(C(=O)Nc3n[nH]c4ccc(Cc5cc(F)cc(F)c5)cc34)c(NC3CCOCC3)c2)CC1 [Entrectinib]
Settings	relative cell number
sgRNA knockout: sgATF3, 1 nM	96.1 ± 36
sgRNA knockout: sgATF3, 10 nM	130 ± 40
sgRNA knockout: sgATF3, 100 nM	102 ± 2.4
sgRNA knockout: sgATF3, 1000 nM	95.4 ± 25
sgRNA knockout: sgATF4, 1 nM	104 ± 44
sgRNA knockout: sgATF4, 10 nM	141 ± 40
sgRNA knockout: sgATF4, 100 nM	78.5 ± 25
sgRNA knockout: sgATF4, 1000 nM	55 ± 8.1
sgRNA knockout: sgATF6, 1 nM	123 ± 19
sgRNA knockout: sgATF6, 10 nM	83.4 ± 28
sgRNA knockout: sgATF6, 100 nM	111 ± 52
sgRNA knockout: sgATF6, 1000 nM	94.9 ± 6
sgRNA knockout: sgATG7, 1 nM	77.1 ± 21
sgRNA knockout: sgATG7, 10 nM	105 ± 17
sgRNA knockout: sgATG7, 100 nM	74.4 ± 19
sgRNA knockout: sgATG7, 1000 nM	75.5 ± 3.1
sgRNA knockout: sgERN1, 1 nM	82.7 ± 4.3
sgRNA knockout: sgERN1, 10 nM	86.7 ± 6.3
sgRNA knockout: sgERN1, 100 nM	96.8 ± 9.9
sgRNA knockout: sgERN1, 1000 nM	71.6 ± 1.2
sgRNA knockout: sgHSF2, 1 nM	95.3 ± 21
sgRNA knockout: sgHSF2, 10 nM	91.3 ± 9.5
sgRNA knockout: sgHSF2, 100 nM	70.8 ± 4.6
sgRNA knockout: sgHSF2, 1000 nM	76.4 ± 24
sgRNA knockout: sgNFE2L2, 1 nM	71.4 ± 7.8
sgRNA knockout: sgNFE2L2, 10 nM	111.2 ± 0.68
sgRNA knockout: sgNFE2L2, 100 nM	96.7 ± 18
sgRNA knockout: sgNFE2L2, 1000 nM	93.6 ± 3.6
sgRNA knockout: sgSLC35F2, 1 nM	86.5 ± 67
sgRNA knockout: sgSLC35F2, 10 nM	91.2 ± 10
sgRNA knockout: sgSLC35F2, 100 nM	148 ± 70
sgRNA knockout: sgSLC35F2, 1000 nM	125 ± 18
sgRNA knockout: sgXBP1, 1 nM	84.6 ± 8.3
sgRNA knockout: sgXBP1, 10 nM	84.1 ± 3.3
sgRNA knockout: sgXBP1, 100 nM	79.4 ± 14
sgRNA knockout: sgXBP1, 1000 nM	81.8 ± 9

CC(C)(C#N)c1ccc(N2C(=O)OCc3cnc4ccc(-c5cnc6ccccc6c5)cc4c32)cc1
Settings	relative cell number
sgRNA knockout: sgATF3, 10 nM	85.4 ± 26
sgRNA knockout: sgATF3, 100 nM	102 ± 3.5
sgRNA knockout: sgATF3, 1000 nM	99.1 ± 6.2
sgRNA knockout: sgATF3, 10000 nM	38.1 ± 5
sgRNA knockout: sgATF4, 10 nM	92.8 ± 23
sgRNA knockout: sgATF4, 100 nM	89.8 ± 14
sgRNA knockout: sgATF4, 1000 nM	80.2 ± 7.8
sgRNA knockout: sgATF4, 10000 nM	51.5 ± 13
sgRNA knockout: sgATF6, 10 nM	69.4 ± 2.9
sgRNA knockout: sgATF6, 100 nM	128 ± 34
sgRNA knockout: sgATF6, 1000 nM	77 ± 14
sgRNA knockout: sgATF6, 10000 nM	48.4 ± 37
sgRNA knockout: sgATG7, 10 nM	106 ± 47
sgRNA knockout: sgATG7, 100 nM	91.1 ± 7
sgRNA knockout: sgATG7, 1000 nM	120 ± 5.2
sgRNA knockout: sgATG7, 10000 nM	39.6 ± 27
sgRNA knockout: sgERN1, 10 nM	82.4 ± 20
sgRNA knockout: sgERN1, 100 nM	108 ± 8.5
sgRNA knockout: sgERN1, 1000 nM	74.8 ± 13
sgRNA knockout: sgERN1, 10000 nM	46.4 ± 6.7
sgRNA knockout: sgHSF2, 10 nM	99.7 ± 1.9
sgRNA knockout: sgHSF2, 100 nM	97.2 ± 1.6
sgRNA knockout: sgHSF2, 1000 nM	80.4 ± 12
sgRNA knockout: sgHSF2, 10000 nM	39.2 ± 17
sgRNA knockout: sgNFE2L2, 10 nM	113 ± 42
sgRNA knockout: sgNFE2L2, 100 nM	93.9 ± 16
sgRNA knockout: sgNFE2L2, 1000 nM	80.6 ± 7.4
sgRNA knockout: sgNFE2L2, 10000 nM	37.3 ± 12
sgRNA knockout: sgSLC35F2, 10 nM	104 ± 7.6
sgRNA knockout: sgSLC35F2, 100 nM	86.3 ± 32
sgRNA knockout: sgSLC35F2, 1000 nM	73.7 ± 8.7
sgRNA knockout: sgSLC35F2, 10000 nM	34.3 ± 14
sgRNA knockout: sgXBP1, 10 nM	107 ± 48
sgRNA knockout: sgXBP1, 100 nM	89.4 ± 25
sgRNA knockout: sgXBP1, 1000 nM	85.9 ± 6.9
sgRNA knockout: sgXBP1, 10000 nM	31.8 ± 3.7

COc1cc(OC)c(/C=C/S(=O)(=O)Cc2ccc(OC)c(NCC(=O)O)c2)c(OC)c1 [Rigosertib]
Settings	relative cell number
sgRNA knockout: sgATF3, 10 nM	72.7 ± 2.6
sgRNA knockout: sgATF3, 100 nM	25.3 ± 4.1
sgRNA knockout: sgATF3, 1000 nM	28.2 ± 1.5
sgRNA knockout: sgATF3, 10000 nM	20.1 ± 6.5
sgRNA knockout: sgATF4, 10 nM	67 ± 39
sgRNA knockout: sgATF4, 100 nM	45.5 ± 5.8
sgRNA knockout: sgATF4, 1000 nM	21.6 ± 8.4
sgRNA knockout: sgATF4, 10000 nM	21.2 ± 5.1
sgRNA knockout: sgATF6, 10 nM	96.2 ± 11
sgRNA knockout: sgATF6, 100 nM	37.7 ± 2.3
sgRNA knockout: sgATF6, 1000 nM	20.7 ± 4
sgRNA knockout: sgATF6, 10000 nM	15.6 ± 1.3
sgRNA knockout: sgATG7, 10 nM	101 ± 9.4
sgRNA knockout: sgATG7, 100 nM	50.7 ± 1.8
sgRNA knockout: sgATG7, 1000 nM	23 ± 5.3
sgRNA knockout: sgATG7, 10000 nM	20.6 ± 3.4
sgRNA knockout: sgERN1, 10 nM	72.5 ± 8.7
sgRNA knockout: sgERN1, 100 nM	35.8 ± 16
sgRNA knockout: sgERN1, 1000 nM	27.4 ± 12
sgRNA knockout: sgERN1, 10000 nM	26.4 ± 4.8
sgRNA knockout: sgHSF2, 10 nM	99.6 ± 16
sgRNA knockout: sgHSF2, 100 nM	44.2 ± 9.9
sgRNA knockout: sgHSF2, 1000 nM	22.9 ± 0.54
sgRNA knockout: sgHSF2, 10000 nM	20.5 ± 2.5
sgRNA knockout: sgNFE2L2, 10 nM	94.9 ± 26
sgRNA knockout: sgNFE2L2, 100 nM	40.7 ± 3.1
sgRNA knockout: sgNFE2L2, 1000 nM	20.7 ± 6.7
sgRNA knockout: sgNFE2L2, 10000 nM	18.8 ± 5.8
sgRNA knockout: sgSLC35F2, 10 nM	81.6 ± 25
sgRNA knockout: sgSLC35F2, 100 nM	45.1 ± 23
sgRNA knockout: sgSLC35F2, 1000 nM	24.8 ± 7.5
sgRNA knockout: sgSLC35F2, 10000 nM	10.2 ± 7.8
sgRNA knockout: sgXBP1, 10 nM	87.6 ± 22
sgRNA knockout: sgXBP1, 100 nM	35.3 ± 7.3
sgRNA knockout: sgXBP1, 1000 nM	21.6 ± 1.9
sgRNA knockout: sgXBP1, 10000 nM	17.5 ± 2.9

CN(Cc1cnc2nc(N)nc(N)c2n1)c1ccc(C(=O)N[C@@H](CCC(=O)O)C(=O)O)cc1 [Methotrexate]
Settings	relative cell number
sgRNA knockout: sgATF3, 10 nM	93.2 ± 5.2
sgRNA knockout: sgATF3, 100 nM	59.7 ± 5.7
sgRNA knockout: sgATF3, 1000 nM	37.5 ± 5.1
sgRNA knockout: sgATF3, 10000 nM	27.9 ± 3.4
sgRNA knockout: sgATF4, 10 nM	114 ± 22
sgRNA knockout: sgATF4, 100 nM	60 ± 37
sgRNA knockout: sgATF4, 1000 nM	52.9 ± 4
sgRNA knockout: sgATF4, 10000 nM	54.3 ± 2
sgRNA knockout: sgATF6, 10 nM	104 ± 1.8
sgRNA knockout: sgATF6, 100 nM	45.5 ± 19
sgRNA knockout: sgATF6, 1000 nM	33.3 ± 0.45
sgRNA knockout: sgATF6, 10000 nM	41.8 ± 27
sgRNA knockout: sgATG7, 10 nM	103 ± 23
sgRNA knockout: sgATG7, 100 nM	65.5 ± 16
sgRNA knockout: sgATG7, 1000 nM	30.9 ± 0.73
sgRNA knockout: sgATG7, 10000 nM	41.2 ± 19
sgRNA knockout: sgERN1, 10 nM	113 ± 3.8
sgRNA knockout: sgERN1, 100 nM	55.4 ± 9.4
sgRNA knockout: sgERN1, 1000 nM	56.2 ± 9.1
sgRNA knockout: sgERN1, 10000 nM	39.1 ± 6.5
sgRNA knockout: sgHSF2, 10 nM	103 ± 20
sgRNA knockout: sgHSF2, 100 nM	54.8 ± 11
sgRNA knockout: sgHSF2, 1000 nM	38.9 ± 0.52
sgRNA knockout: sgHSF2, 10000 nM	30.8 ± 3.1
sgRNA knockout: sgNFE2L2, 10 nM	95.6 ± 34
sgRNA knockout: sgNFE2L2, 100 nM	57.7 ± 18
sgRNA knockout: sgNFE2L2, 1000 nM	44.4 ± 1.6
sgRNA knockout: sgNFE2L2, 10000 nM	34 ± 12
sgRNA knockout: sgSLC35F2, 10 nM	108 ± 20
sgRNA knockout: sgSLC35F2, 100 nM	67.6 ± 37
sgRNA knockout: sgSLC35F2, 1000 nM	45.4 ± 13
sgRNA knockout: sgSLC35F2, 10000 nM	52.4 ± 7.3
sgRNA knockout: sgXBP1, 10 nM	92.9 ± 18
sgRNA knockout: sgXBP1, 100 nM	49.2 ± 6.3
sgRNA knockout: sgXBP1, 1000 nM	42.6 ± 6.1
sgRNA knockout: sgXBP1, 10000 nM	35.9 ± 1.7
